This experiment has as its target T1, murine EphB4-Alkaline Phosphatase (murine) (UniProt P54761).
T1 sequence (looked up): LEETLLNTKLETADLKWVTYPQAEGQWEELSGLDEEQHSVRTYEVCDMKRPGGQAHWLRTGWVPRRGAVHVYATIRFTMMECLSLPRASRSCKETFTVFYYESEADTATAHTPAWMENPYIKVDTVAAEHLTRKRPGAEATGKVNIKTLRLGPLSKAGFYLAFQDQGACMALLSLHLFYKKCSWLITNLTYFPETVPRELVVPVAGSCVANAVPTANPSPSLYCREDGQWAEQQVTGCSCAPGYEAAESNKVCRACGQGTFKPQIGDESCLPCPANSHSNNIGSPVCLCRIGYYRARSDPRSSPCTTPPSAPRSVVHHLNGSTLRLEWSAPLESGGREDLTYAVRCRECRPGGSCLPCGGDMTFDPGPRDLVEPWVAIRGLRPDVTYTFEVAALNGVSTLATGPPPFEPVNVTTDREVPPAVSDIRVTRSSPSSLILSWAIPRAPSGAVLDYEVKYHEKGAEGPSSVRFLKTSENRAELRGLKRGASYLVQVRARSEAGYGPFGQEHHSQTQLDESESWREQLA
In words: ELISA binding curve: ephrin-B2 Fc immobilised, increasing volumes of murine EphB4 AP, OD405; one experiment.

The chains behind the UniProt entries cited, without tags or fusion partners. Where a name states a change or a piece, a line headed by the entry shows the natural chain unless it says otherwise.
UniProt P52800: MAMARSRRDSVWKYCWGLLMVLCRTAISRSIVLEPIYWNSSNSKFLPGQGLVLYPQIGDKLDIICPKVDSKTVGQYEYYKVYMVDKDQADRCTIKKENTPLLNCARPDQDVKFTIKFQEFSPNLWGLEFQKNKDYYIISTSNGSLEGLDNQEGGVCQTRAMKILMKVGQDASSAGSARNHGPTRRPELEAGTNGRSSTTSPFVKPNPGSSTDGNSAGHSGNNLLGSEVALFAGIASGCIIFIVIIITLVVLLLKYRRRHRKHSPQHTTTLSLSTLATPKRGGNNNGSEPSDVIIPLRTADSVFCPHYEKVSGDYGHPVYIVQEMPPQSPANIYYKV

From patent US20100150834A1, “HIGH AFFINITY EPHB RECEPTOR BINDING COMPOUNDS AND METHODS OF USE THEREOF” (priority 2006, published 2010) come the findings set out here.

Results are given in words; binding and its absence hold for the method and conditions named. Some binding calls cover weakened binding; strength is not graded here.

“ephrin-B2 Fc (Example 7) (from UniProt P52800 29-232) (Fc fusion)”: the binding entry was “binds”.
